The values below come from patent US20240239892A1 (SUZHOU KANOVA BIOPHARMACEUTICAL, published 2024).

Sequences of proteins named here, by UniProt entry; tags and fusion partners are left off. Residues count along the entry.
UniProt Q15116, residues 21-167: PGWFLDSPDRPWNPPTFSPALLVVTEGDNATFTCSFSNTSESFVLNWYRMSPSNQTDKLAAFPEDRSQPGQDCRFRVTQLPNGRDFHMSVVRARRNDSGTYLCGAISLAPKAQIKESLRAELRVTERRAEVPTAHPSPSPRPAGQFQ

Substitutions are numbered along the chain they refer to. These are yes or no findings as the source states them, for the method shown. Some results given as binding are weak or reduced against the parent protein; the word gives no strength.

This test concerns the target PD-1 (analyte of the SPR assay of Example 3) (human) (UniProt Q15116). In words: SPR off-rate ranking (Biacore 8K).

B1: VH6 + VL1 (antibody, human IgG1, kappa, V domains shown)
VH: EVQLVESGGGLVQPGGSLRLSCAASGFTFSSYGMSWVRQAPGKRLEWVAIISGGGRDIYYLDSVKGRFTISRDNSKNTLYLQMNSLRAEDTAVYYCSSPIYDAYSFAYWGQGTLVTVSS
VL: EIVMTQSPATLSVSPGERATLSCRASQTISNNLHWYQQKPGQAPRLLIYYASQSISGIPARFSGSGSGTEFTLTISSLQSEDFAVYYCQQSYSWPLTFGGGTKLEIKR
notes: Humanized full-length IgG expressed in HEK293; For SPR it was captured from culture medium through its Fc; also called HC1 + LC1
For the molecule B1, the binding result is reported as “binds”.

B2: anti-PD-1 antibody VH7+VL6 (antibody, human IgG1, kappa, V domains shown)
VH: B1 VH with R44G, T78N
VL: B1 VL with M4L, Q37H, Y49K, A60S, E70D, Y87F
notes: also called HC2 + LC2
With B2, the binding entry was “binds”.

B3: VH7 + VL1 (antibody, human IgG1, kappa, V domains shown)
VH: B1 VH with R44G, T78N
VL: B1 VL
notes: Humanized full-length IgG expressed in HEK293; also called HC2 + LC1
With B3, the binding result is “binds”.

B4: VH6 + VL6 (antibody, human IgG1, kappa, V domains shown)
VH: B1 VH
VL: B1 VL with M4L, Q37H, Y49K, A60S, E70D, Y87F
notes: Humanized full-length IgG expressed in HEK293; also called HC1 + LC2
Regarding B4, the binding result is “binds”.
